These results are taken from the supplement of paper PMC6411743.

Amino acid sequences for entries named in this document (tags omitted). A change or cut given only in a name is not applied to a line headed by its entry.
UniProt Q9Y639: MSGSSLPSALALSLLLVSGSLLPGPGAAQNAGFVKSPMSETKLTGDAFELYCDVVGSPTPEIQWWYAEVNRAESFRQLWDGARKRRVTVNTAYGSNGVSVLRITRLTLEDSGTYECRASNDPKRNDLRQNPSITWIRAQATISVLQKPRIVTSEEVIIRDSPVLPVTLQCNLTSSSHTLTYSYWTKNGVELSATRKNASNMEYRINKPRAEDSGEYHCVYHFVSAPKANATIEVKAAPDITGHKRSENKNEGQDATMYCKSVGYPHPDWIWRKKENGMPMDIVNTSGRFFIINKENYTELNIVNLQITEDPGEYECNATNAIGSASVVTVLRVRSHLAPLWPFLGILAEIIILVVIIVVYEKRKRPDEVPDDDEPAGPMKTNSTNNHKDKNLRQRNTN
UniProt Q9Y697: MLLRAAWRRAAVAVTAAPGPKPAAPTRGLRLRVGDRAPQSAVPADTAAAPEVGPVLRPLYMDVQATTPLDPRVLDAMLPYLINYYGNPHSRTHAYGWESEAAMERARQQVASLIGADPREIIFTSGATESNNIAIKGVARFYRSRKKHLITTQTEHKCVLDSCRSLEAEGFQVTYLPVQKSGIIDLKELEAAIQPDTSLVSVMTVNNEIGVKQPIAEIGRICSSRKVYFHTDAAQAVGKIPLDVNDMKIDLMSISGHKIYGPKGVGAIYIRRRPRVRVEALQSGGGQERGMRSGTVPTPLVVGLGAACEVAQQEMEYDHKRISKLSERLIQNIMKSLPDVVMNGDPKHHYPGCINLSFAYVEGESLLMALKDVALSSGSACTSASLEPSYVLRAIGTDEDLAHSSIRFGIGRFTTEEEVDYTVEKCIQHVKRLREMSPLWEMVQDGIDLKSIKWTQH
UniProt Q9Y2Z4: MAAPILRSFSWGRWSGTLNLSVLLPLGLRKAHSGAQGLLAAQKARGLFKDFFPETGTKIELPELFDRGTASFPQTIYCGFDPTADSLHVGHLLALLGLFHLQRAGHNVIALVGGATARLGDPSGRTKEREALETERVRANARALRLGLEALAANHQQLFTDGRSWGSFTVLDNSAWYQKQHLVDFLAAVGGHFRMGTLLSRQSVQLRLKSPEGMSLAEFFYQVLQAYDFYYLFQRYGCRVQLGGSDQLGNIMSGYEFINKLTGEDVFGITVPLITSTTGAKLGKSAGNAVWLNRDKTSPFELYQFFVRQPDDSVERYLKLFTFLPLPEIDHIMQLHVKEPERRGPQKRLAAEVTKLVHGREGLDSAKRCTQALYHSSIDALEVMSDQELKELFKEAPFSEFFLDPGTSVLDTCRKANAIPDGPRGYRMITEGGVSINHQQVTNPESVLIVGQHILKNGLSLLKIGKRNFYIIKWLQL
UniProt Q9Y3S2: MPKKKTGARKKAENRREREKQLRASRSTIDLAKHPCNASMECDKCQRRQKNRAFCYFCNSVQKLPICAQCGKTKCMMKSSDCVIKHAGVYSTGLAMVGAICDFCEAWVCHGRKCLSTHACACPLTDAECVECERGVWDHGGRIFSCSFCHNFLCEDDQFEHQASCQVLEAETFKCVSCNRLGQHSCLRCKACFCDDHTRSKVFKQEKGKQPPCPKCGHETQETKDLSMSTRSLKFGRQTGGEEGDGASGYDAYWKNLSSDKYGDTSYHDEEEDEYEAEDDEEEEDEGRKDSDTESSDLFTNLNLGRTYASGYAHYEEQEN
UniProt Q9Y2V2: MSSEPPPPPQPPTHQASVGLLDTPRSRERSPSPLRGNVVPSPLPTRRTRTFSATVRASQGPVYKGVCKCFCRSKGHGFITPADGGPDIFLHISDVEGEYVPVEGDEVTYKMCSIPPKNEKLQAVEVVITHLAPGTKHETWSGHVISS
UniProt Q9Y5M8: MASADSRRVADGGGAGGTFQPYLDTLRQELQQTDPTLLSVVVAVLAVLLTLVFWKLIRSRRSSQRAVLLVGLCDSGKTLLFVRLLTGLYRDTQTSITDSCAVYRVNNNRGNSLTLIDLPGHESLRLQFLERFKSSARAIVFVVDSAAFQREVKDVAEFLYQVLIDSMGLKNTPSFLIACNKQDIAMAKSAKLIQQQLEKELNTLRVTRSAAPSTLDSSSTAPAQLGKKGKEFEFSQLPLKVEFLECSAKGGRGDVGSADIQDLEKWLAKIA
UniProt Q9Y4P8: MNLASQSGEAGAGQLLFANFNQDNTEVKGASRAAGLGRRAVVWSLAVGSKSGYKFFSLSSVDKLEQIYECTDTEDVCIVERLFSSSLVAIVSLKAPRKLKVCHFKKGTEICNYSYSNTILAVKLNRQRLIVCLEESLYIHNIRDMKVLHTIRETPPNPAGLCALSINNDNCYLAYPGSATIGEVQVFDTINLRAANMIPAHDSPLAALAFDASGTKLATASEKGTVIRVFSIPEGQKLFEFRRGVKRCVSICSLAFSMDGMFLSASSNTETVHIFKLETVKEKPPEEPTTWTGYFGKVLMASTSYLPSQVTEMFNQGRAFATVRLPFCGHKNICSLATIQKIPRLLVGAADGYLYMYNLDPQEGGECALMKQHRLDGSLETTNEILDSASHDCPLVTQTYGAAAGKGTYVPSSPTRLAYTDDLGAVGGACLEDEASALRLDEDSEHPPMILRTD
UniProt Q9Y2Z0: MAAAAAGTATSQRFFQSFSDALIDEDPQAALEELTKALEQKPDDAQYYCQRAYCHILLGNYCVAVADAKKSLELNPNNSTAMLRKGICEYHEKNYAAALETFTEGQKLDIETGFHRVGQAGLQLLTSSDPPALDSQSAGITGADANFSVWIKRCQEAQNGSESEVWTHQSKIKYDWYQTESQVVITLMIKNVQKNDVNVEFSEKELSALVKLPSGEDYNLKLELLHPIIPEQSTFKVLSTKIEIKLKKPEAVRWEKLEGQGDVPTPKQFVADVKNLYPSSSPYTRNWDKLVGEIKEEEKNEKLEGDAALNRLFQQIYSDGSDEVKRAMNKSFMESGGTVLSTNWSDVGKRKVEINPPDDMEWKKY
UniProt Q9Y3Y2: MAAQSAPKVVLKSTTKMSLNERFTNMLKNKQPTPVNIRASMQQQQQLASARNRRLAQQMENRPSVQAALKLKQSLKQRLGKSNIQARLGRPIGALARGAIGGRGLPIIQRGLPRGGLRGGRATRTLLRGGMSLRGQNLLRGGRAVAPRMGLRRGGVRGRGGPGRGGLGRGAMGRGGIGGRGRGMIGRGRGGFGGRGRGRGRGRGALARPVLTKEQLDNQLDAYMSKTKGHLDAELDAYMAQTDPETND
UniProt Q9Y5V3: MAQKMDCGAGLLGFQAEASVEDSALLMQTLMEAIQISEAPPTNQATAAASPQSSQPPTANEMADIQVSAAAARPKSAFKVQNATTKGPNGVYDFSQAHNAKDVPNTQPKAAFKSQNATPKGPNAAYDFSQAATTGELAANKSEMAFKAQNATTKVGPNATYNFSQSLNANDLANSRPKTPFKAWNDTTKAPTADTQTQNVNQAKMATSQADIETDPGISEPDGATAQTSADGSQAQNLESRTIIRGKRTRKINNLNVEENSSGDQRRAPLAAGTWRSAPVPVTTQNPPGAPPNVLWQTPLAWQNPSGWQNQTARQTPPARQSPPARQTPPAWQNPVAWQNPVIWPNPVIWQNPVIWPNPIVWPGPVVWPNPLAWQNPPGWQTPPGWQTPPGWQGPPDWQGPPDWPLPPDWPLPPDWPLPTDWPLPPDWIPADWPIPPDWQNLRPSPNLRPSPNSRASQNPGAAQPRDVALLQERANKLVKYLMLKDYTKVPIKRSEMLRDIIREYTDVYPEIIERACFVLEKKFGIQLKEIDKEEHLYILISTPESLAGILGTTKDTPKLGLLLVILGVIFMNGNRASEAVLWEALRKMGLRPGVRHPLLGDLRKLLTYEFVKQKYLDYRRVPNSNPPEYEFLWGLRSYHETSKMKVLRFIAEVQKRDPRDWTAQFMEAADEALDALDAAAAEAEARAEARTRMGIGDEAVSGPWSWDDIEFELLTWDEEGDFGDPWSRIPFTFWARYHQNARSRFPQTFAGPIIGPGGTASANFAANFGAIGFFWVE
UniProt Q9Y4X5: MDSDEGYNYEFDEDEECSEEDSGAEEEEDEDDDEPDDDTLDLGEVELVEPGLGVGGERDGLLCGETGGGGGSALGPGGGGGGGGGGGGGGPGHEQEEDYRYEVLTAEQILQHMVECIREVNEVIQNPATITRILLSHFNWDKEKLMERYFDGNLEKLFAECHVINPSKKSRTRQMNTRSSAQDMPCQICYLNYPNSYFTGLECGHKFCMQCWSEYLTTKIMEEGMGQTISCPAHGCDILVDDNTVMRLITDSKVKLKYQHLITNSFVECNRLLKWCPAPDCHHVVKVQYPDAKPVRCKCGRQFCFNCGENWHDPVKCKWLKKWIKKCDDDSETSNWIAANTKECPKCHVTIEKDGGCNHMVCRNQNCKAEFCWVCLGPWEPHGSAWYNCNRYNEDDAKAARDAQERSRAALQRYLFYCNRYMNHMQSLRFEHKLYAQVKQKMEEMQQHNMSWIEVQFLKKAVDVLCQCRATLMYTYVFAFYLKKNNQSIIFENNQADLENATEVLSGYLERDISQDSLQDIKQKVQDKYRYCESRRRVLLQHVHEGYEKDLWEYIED
UniProt Q9UPM8: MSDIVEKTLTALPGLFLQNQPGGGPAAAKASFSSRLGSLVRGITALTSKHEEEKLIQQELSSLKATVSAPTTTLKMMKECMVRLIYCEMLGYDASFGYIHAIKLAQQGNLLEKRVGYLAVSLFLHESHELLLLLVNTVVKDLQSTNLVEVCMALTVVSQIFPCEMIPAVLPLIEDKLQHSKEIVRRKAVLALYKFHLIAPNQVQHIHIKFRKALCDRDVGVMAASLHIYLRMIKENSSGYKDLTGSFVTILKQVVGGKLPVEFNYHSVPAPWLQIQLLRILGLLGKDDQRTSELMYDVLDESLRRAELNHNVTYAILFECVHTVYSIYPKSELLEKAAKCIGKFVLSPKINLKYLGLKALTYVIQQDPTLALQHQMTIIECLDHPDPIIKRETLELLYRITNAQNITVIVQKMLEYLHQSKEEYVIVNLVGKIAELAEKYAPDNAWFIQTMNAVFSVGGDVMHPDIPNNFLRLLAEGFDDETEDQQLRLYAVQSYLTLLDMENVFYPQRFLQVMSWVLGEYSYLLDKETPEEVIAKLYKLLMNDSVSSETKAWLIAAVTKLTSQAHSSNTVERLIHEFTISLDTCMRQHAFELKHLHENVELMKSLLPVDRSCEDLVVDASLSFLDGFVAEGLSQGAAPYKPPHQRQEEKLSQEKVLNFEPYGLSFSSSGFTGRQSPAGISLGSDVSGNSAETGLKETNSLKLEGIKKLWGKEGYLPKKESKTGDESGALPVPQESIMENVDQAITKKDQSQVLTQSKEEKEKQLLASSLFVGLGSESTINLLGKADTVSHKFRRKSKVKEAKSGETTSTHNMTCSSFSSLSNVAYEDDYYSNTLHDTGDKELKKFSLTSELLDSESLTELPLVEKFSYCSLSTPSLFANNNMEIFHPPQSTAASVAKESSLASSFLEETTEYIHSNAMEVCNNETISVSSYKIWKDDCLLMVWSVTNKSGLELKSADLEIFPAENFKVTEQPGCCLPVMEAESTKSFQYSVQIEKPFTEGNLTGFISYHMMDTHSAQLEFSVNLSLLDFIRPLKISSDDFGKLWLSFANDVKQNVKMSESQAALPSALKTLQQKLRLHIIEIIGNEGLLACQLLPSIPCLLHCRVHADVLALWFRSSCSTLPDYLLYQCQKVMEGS
UniProt Q9Y4C8: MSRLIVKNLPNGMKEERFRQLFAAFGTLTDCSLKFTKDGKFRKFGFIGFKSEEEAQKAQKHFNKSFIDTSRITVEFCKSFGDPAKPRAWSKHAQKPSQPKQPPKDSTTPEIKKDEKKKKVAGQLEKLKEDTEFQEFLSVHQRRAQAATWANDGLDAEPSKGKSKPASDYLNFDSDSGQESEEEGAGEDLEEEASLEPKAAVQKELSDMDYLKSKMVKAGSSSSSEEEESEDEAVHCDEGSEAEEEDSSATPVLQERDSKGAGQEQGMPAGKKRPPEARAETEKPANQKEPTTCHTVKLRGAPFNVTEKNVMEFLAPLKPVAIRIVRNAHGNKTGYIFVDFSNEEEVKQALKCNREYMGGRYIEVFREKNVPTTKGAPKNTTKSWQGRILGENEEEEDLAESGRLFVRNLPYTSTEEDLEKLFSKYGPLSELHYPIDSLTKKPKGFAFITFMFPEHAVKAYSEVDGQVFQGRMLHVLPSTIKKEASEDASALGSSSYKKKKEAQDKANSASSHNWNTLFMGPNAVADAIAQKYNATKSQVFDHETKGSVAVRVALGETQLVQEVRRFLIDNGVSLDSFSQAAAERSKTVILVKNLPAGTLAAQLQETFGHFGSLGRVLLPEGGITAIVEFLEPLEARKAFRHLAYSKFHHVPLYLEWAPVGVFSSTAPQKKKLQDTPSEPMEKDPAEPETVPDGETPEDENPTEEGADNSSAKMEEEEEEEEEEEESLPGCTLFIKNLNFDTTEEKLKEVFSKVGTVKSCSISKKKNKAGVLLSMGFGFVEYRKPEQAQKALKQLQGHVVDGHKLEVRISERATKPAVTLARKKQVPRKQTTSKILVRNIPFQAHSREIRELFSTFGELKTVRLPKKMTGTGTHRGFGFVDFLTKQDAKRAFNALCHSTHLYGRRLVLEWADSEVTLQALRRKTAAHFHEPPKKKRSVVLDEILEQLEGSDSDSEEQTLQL

± gives the standard deviation of the averaged measurements. This is one part of the list.

Compound in one assay: Nc1nc2c(ncn2[C@@H]2O[C@H](COP(=O)(O)OP(=O)(O)OP(=O)(O)O)[C@@H](O)[C@H]2O)c(=O)[nH]1 [guanosine triphosphate]
As to the kind of experiment: NP40-soluble protein abundance relative to vehicle (solubility fold change) (ratio); higher = more soluble protein in presence of GTP. As to conditions: concentration: 2mM. Put shortly: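 Jurkat crude lysate (Dounce-homogenised) was treated with eight concentrations from 0.1 to 10 mM for 10 min at room temperature, then 3 min at 37 °C. It was solubilised with 0.8% NP40 and benzonase (60 min, 4 °C) and ultracentrifuged, and the supernatant was TMT-labelled for LC-MS/MS. Intensities were vsn-normalised, and the value is the fold change against the NP40-processed vehicle per replicate, from three independent experiments.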
As for UniProt Q9Y3B7 and related entries, the NP40-soluble protein abundance was found to be 1.34 ± 0.25.

UniProt Q9UMZ2 and related entries: the NP40-soluble protein abundance came to 0.911 ± 0.083.

For RABGAP1 (UniProt Q9Y3P9), the NP40-soluble protein abundance was determined as 0.9489 ± 0.0078.

As to UniProt Q9Y639 and related entries, the NP40-soluble protein abundance came to 0.927 ± 0.039.

In the case of UniProt Q9Y697 and related entries, the NP40-soluble protein abundance worked out at 1.01 ± 0.014.

Consider UniProt Q9Y2H1, for which the NP40-soluble protein abundance worked out at 1.02 ± 0.12.

For ENPP4 (UniProt Q9Y6X5), the NP40-soluble protein abundance is 0.976 ± 0.13.

UniProt Q9Y2G2 and related entries: the NP40-soluble protein abundance stood at 0.9578 ± 0.0016.

For the target UniProt Q9Y2U5, the NP40-soluble protein abundance was found to be 0.964 ± 0.053.

Regarding SNX8 (UniProt Q9Y5X2), the NP40-soluble protein abundance came out at 0.983 ± 0.076.

For the target YARS2 (UniProt Q9Y2Z4), the NP40-soluble protein abundance stood at 0.949 ± 0.095.

For the target UniProt Q9Y2X0-2|Q9Y2X0-3|Q9Y2X0, the NP40-soluble protein abundance was determined as 1.16 ± 0.28.

As for UniProt Q9Y678, the NP40-soluble protein abundance was 1.05 ± 0.026.

Take UniProt Q9UN86-2|Q9UN86: the NP40-soluble protein abundance worked out at 1.06 ± 0.09.

ZNF330 (UniProt Q9Y3S2): the NP40-soluble protein abundance was determined as 0.962 ± 0.079.

Consider UniProt Q9Y2V2 and related entries, for which the NP40-soluble protein abundance worked out at 0.901 ± 0.079.

For the target SRPRB (UniProt Q9Y5M8), the NP40-soluble protein abundance was 0.94 ± 0.068.

As for SLC5A6 (UniProt Q9Y289), the NP40-soluble protein abundance turned out to be 1.03 ± 0.022.

SMC3 (UniProt Q9UQE7): the NP40-soluble protein abundance was determined as 1.02 ± 0.032.

On to LEMD3 (UniProt Q9Y2U8), for which the NP40-soluble protein abundance was 1.01 ± 0.048.

Take ZNF148 (UniProt Q9UQR1): the NP40-soluble protein abundance came to 0.919 ± 0.037.

For the target TELO2 (UniProt Q9Y4R8), the NP40-soluble protein abundance stood at 1.03 ± 0.073.

On to ICE1 (UniProt Q9Y2F5), for which the NP40-soluble protein abundance turned out to be 1.2 ± 0.059.

For the target ASF1A (UniProt Q9Y294), the NP40-soluble protein abundance came out at 0.85 ± 0.052.

As for PRKAB1 (UniProt Q9Y478), the NP40-soluble protein abundance came to 1.01 ± 0.031.

For the target UniProt Q9Y4P8 and related entries, the NP40-soluble protein abundance was found to be 0.961 ± 0.1.

In the case of SUGT1 (UniProt Q9Y2Z0), the NP40-soluble protein abundance turned out to be 0.88 ± 0.029.

As for UniProt Q9Y3Y2 and related entries, the NP40-soluble protein abundance worked out at 1.13 ± 0.038.

For the target DYNC1LI1 (UniProt Q9Y6G9), the NP40-soluble protein abundance was 1.13 ± 0.12.

With UniProt Q9Y5V3 and related entries, the NP40-soluble protein abundance came to 1.11 ± 0.057.

For UniProt Q9Y3C4 and related entries, the NP40-soluble protein abundance came to 0.989 ± 0.028.

Regarding CHKB (UniProt Q9Y259), the NP40-soluble protein abundance was found to be 1.02 ± 0.2.

For the target UniProt Q9Y6A4, the NP40-soluble protein abundance came to 0.968 ± 0.1.

Take ARIH1 (UniProt Q9Y4X5): the NP40-soluble protein abundance was 0.942 ± 0.048.

In the case of TLN2 (UniProt Q9Y4G6), the NP40-soluble protein abundance worked out at 0.978 ± 0.099.

With UniProt Q9Y3D0, the NP40-soluble protein abundance stood at 1.04 ± 0.049.

In the case of AP4E1 (UniProt Q9UPM8), the NP40-soluble protein abundance stood at 1.1 ± 0.062.

As for RBM19 (UniProt Q9Y4C8), the NP40-soluble protein abundance was 1.11 ± 0.065.

The same assay, now with this note: concentration: 4mM.
Turning to UniProt Q9Y3B7 and related entries, the NP40-soluble protein abundance was found to be 1.32 ± 0.32.

On to UniProt Q9UMZ2 and related entries, for which the NP40-soluble protein abundance was 0.916 ± 0.077.

Turning to RABGAP1 (UniProt Q9Y3P9), the NP40-soluble protein abundance amounted to 0.938 ± 0.019.

UniProt Q9Y639 and related entries: the NP40-soluble protein abundance is 0.95 ± 0.038.

Turning to UniProt Q9Y697 and related entries, the NP40-soluble protein abundance turned out to be 0.992 ± 0.027.

As for UniProt Q9Y2H1, the NP40-soluble protein abundance is 0.984 ± 0.051.

Consider ENPP4 (UniProt Q9Y6X5), for which the NP40-soluble protein abundance is 0.964 ± 0.098.

Turning to UniProt Q9Y2G2 and related entries, the NP40-soluble protein abundance worked out at 0.887 ± 0.12.

Consider UniProt Q9Y2U5, for which the NP40-soluble protein abundance was 0.945 ± 0.039.

On to SNX8 (UniProt Q9Y5X2), for which the NP40-soluble protein abundance amounted to 0.982 ± 0.098.

On to YARS2 (UniProt Q9Y2Z4), for which the NP40-soluble protein abundance is 0.884 ± 0.06.

Turning to UniProt Q9Y2X0-2|Q9Y2X0-3|Q9Y2X0, the NP40-soluble protein abundance was found to be 1.08 ± 0.21.

For the target UniProt Q9Y678, the NP40-soluble protein abundance turned out to be 1.06 ± 0.038.

Regarding UniProt Q9UN86-2|Q9UN86, the NP40-soluble protein abundance turned out to be 1.12 ± 0.1.

ZNF330 (UniProt Q9Y3S2): the NP40-soluble protein abundance was determined as 0.992 ± 0.072.

In the case of UniProt Q9Y2V2 and related entries, the NP40-soluble protein abundance is 0.876 ± 0.065.

Turning to SRPRB (UniProt Q9Y5M8), the NP40-soluble protein abundance was 0.951 ± 0.053.

As for SLC5A6 (UniProt Q9Y289), the NP40-soluble protein abundance turned out to be 1.03 ± 0.052.

Take SMC3 (UniProt Q9UQE7): the NP40-soluble protein abundance is 1.03 ± 0.032.

As to LEMD3 (UniProt Q9Y2U8), the NP40-soluble protein abundance amounted to 0.999 ± 0.036.

On to ZNF148 (UniProt Q9UQR1), for which the NP40-soluble protein abundance was determined as 0.9092 ± 0.0061.

Turning to TELO2 (UniProt Q9Y4R8), the NP40-soluble protein abundance was found to be 0.981 ± 0.055.

Take ICE1 (UniProt Q9Y2F5): the NP40-soluble protein abundance stood at 1.31 ± 0.091.

For ASF1A (UniProt Q9Y294), the NP40-soluble protein abundance turned out to be 0.855 ± 0.061.

Take PRKAB1 (UniProt Q9Y478): the NP40-soluble protein abundance came to 1 ± 0.033.

As for UniProt Q9Y4P8 and related entries, the NP40-soluble protein abundance came to 0.959 ± 0.1.

As to SUGT1 (UniProt Q9Y2Z0), the NP40-soluble protein abundance amounted to 0.87 ± 0.046.

UniProt Q9Y3Y2 and related entries: the NP40-soluble protein abundance amounted to 1.19 ± 0.034.

As to DYNC1LI1 (UniProt Q9Y6G9), the NP40-soluble protein abundance was found to be 1.14 ± 0.13.

Consider UniProt Q9Y5V3 and related entries, for which the NP40-soluble protein abundance worked out at 1.11 ± 0.14.

Turning to UniProt Q9Y3C4 and related entries, the NP40-soluble protein abundance was determined as 0.98 ± 0.052.

For CHKB (UniProt Q9Y259), the NP40-soluble protein abundance was determined as 0.934 ± 0.13.

Turning to UniProt Q9Y6A4, the NP40-soluble protein abundance worked out at 1.01 ± 0.05.

With ARIH1 (UniProt Q9Y4X5), the NP40-soluble protein abundance amounted to 0.945 ± 0.068.

On to TLN2 (UniProt Q9Y4G6), for which the NP40-soluble protein abundance is 0.913 ± 0.1.

Take UniProt Q9Y3D0: the NP40-soluble protein abundance was found to be 0.987 ± 0.043.

As to AP4E1 (UniProt Q9UPM8), the NP40-soluble protein abundance is 1.13 ± 0.019.

In the case of RBM19 (UniProt Q9Y4C8), the NP40-soluble protein abundance stood at 1.22 ± 0.089.

The same assay, now with this note: concentration: 6mM.
Turning to UniProt Q9Y3B7 and related entries, the NP40-soluble protein abundance is 1.34 ± 0.31.

With UniProt Q9UMZ2 and related entries, the NP40-soluble protein abundance turned out to be 0.918 ± 0.083.

Regarding RABGAP1 (UniProt Q9Y3P9), the NP40-soluble protein abundance came to 0.928 ± 0.019.

For UniProt Q9Y639 and related entries, the NP40-soluble protein abundance was found to be 0.92 ± 0.042.

Turning to UniProt Q9Y697 and related entries, the NP40-soluble protein abundance is 0.946 ± 0.025.

Consider UniProt Q9Y2H1, for which the NP40-soluble protein abundance turned out to be 1 ± 0.086.

As to ENPP4 (UniProt Q9Y6X5), the NP40-soluble protein abundance came out at 0.979 ± 0.11.

With UniProt Q9Y2G2 and related entries, the NP40-soluble protein abundance stood at 0.906 ± 0.057.

Take UniProt Q9Y2U5: the NP40-soluble protein abundance stood at 0.933 ± 0.016.

As to SNX8 (UniProt Q9Y5X2), the NP40-soluble protein abundance is 0.951 ± 0.06.

For YARS2 (UniProt Q9Y2Z4), the NP40-soluble protein abundance stood at 0.942 ± 0.1.

Turning to UniProt Q9Y2X0-2|Q9Y2X0-3|Q9Y2X0, the NP40-soluble protein abundance stood at 1.11 ± 0.16.

On to UniProt Q9Y678, for which the NP40-soluble protein abundance worked out at 1.02 ± 0.04.

On to UniProt Q9UN86-2|Q9UN86, for which the NP40-soluble protein abundance came to 1.16 ± 0.086.

For the target ZNF330 (UniProt Q9Y3S2), the NP40-soluble protein abundance is 0.976 ± 0.085.

For the target UniProt Q9Y2V2 and related entries, the NP40-soluble protein abundance turned out to be 0.907 ± 0.11.

On to SRPRB (UniProt Q9Y5M8), for which the NP40-soluble protein abundance was 0.957 ± 0.07.

Take SLC5A6 (UniProt Q9Y289): the NP40-soluble protein abundance was determined as 0.948 ± 0.057.

On to SMC3 (UniProt Q9UQE7), for which the NP40-soluble protein abundance turned out to be 1.02 ± 0.043.

As to LEMD3 (UniProt Q9Y2U8), the NP40-soluble protein abundance amounted to 0.985 ± 0.033.

In the case of ZNF148 (UniProt Q9UQR1), the NP40-soluble protein abundance was found to be 0.905 ± 0.026.

In the case of TELO2 (UniProt Q9Y4R8), the NP40-soluble protein abundance stood at 0.975 ± 0.11.

Consider ICE1 (UniProt Q9Y2F5), for which the NP40-soluble protein abundance was 1.35 ± 0.028.

Regarding ASF1A (UniProt Q9Y294), the NP40-soluble protein abundance came out at 0.845 ± 0.13.

Turning to PRKAB1 (UniProt Q9Y478), the NP40-soluble protein abundance came out at 1 ± 0.03.

In the case of UniProt Q9Y4P8 and related entries, the NP40-soluble protein abundance amounted to 0.959 ± 0.053.

As to SUGT1 (UniProt Q9Y2Z0), the NP40-soluble protein abundance came to 0.877 ± 0.046.

UniProt Q9Y3Y2 and related entries: the NP40-soluble protein abundance was 1.21 ± 0.046.

DYNC1LI1 (UniProt Q9Y6G9): the NP40-soluble protein abundance turned out to be 1.16 ± 0.16.

As to UniProt Q9Y5V3 and related entries, the NP40-soluble protein abundance came out at 1.12 ± 0.097.

Consider UniProt Q9Y3C4 and related entries, for which the NP40-soluble protein abundance stood at 0.954 ± 0.085.

Consider CHKB (UniProt Q9Y259), for which the NP40-soluble protein abundance is 1.03 ± 0.28.

Consider UniProt Q9Y6A4, for which the NP40-soluble protein abundance turned out to be 0.964 ± 0.087.

For ARIH1 (UniProt Q9Y4X5), the NP40-soluble protein abundance is 0.93 ± 0.074.

Take TLN2 (UniProt Q9Y4G6): the NP40-soluble protein abundance stood at 0.973 ± 0.075.

For the target UniProt Q9Y3D0, the NP40-soluble protein abundance stood at 1.04 ± 0.013.

As to AP4E1 (UniProt Q9UPM8), the NP40-soluble protein abundance was 1.06 ± 0.011.

RBM19 (UniProt Q9Y4C8): the NP40-soluble protein abundance was 1.26 ± 0.077.
